PubChem BioAssay AID652259 | Drosophila RNAi Screening Center, 2013
In all, the deposit lists about 22,000 reagents; this is a random part of those with a known target gene and a result. Of all reagents, 233 (1.1%) were called active. 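Light values are raw, unnormalised plate reads; the ratio scores behind the reporter calls were not deposited.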 The record does not give: the amount of reagent, the time to read-out, the dose of the treatment.

Test: 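Genome-wide hunt for genes that control Wingless pathway activity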 (primary screen)
Cell system: Drosophila clone 8 imaginal disc epithelial cells
Reagents: long dsRNA against Drosophila genes
Conditions: pathway stimulated by co-transfected Wingless expression plasmid
Measured: 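Dual luciferase reads per well after Wingless plasmid stimulation: reporter firefly light and Renilla control light; activity is firefly divided by Renilla, a ratio not deposited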
Direction: firefly reporter light: higher = more Wg reporter light, before normalisation; Renilla control light: higher = more transfected or surviving cells
Active means: 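a knock-down is a candidate when at least two out of four statistical tests show it departing from its plate mean; one test alone signals a weak candidate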
Meaning of the calls: active = candidate regulator (raises or lowers reporter); inactive = not a candidate

| firefly reporter light, replicate 1 | firefly reporter light, replicate 2 | Renilla control light, replicate 1 | Renilla control light, replicate 2 | Call | target gene | DRSC id |
| --- | --- | --- | --- | --- | --- | --- |
| 5032 | – | 2509 | – | inactive | CG7320 (GeneID 40010) | DRSC10810 |
| 31465 | – | 4966 | – | inactive | CG42335 (GeneID 42558) | DRSC14597 |
| 30481 | – | 5254 | – | inactive | CG42335 (GeneID 42558) | DRSC15892 |
| 3177 | – | 1283 | – | inactive | ImpE2 (GeneID 38432) | DRSC08665 |
| 20113 | – | 10309 | – | inactive | rod (GeneID 43719) | DRSC17047 |
| 12640 | – | 2048 | – | inactive | CG8138 (GeneID 41619) | DRSC16386 |
| 1783 | 5083 | 1072 | 2421 | inactive | GAPcenA (GeneID 38945) | DRSC10771 |
| 6069 | – | 290 | – | inactive | CG13675 (GeneID 38907) | DRSC08908 |
| 1736 | 5113 | 930 | 1051 | inactive | CG13675 (GeneID 38907) | DRSC10034 |
| 3173 | 8233 | 643 | 2901 | inactive | CG13962 (GeneID 35270) | DRSC02304 |
| 14272 | – | 5194 | – | inactive | CG10237 (GeneID 35222) | DRSC02029 |
| 15740 | – | 3562 | – | inactive | CG14285 (GeneID 42281) | DRSC14766 |
| 3274 | 6185 | 893 | 2346 | inactive | CCT4 (GeneID 34674) | DRSC02865 |
| 3571 | – | 1642 | – | inactive | CG32450 (GeneID 318034) | DRSC11546 |
| 10080 | – | 2708 | – | inactive | Bdp1 (GeneID 34748) | DRSC03192 |
| 4103 | 10167 | 896 | 3734 | inactive | CG31612 (GeneID 35427) | DRSC03697 |
| 2282 | 5595 | 747 | 2377 | inactive | CG31612 (GeneID 35427) | DRSC03698 |
| 19639 | – | 8445 | – | inactive | Pkcdelta (GeneID 32191) | DRSC19356 |
| 19147 | – | 8410 | – | inactive | Pkcdelta (GeneID 32191) | DRSC19399 |
| 7355 | – | 2786 | – | inactive | CG33060 (GeneID 39807) | DRSC09939 |
| 10522 | – | 3330 | – | inactive | Tpc1 (GeneID 41316) | DRSC15614 |
| 5984 | – | 2048 | – | inactive | Tpc1 (GeneID 41316) | DRSC16074 |
| 1850 | 6288 | 765 | 2619 | inactive | CG10651 (GeneID 35303) | DRSC02086 |
| 18520 | – | 7573 | – | inactive | Cyp4g15 (GeneID 32093) | DRSC20240 |
| 7.02e5 | 5.77e5 | 3.42e5 | 2.05e5 | inactive | Ir94b (GeneID 318728) | DRSC21439 |
| 1808 | 5012 | 917 | 2157 | inactive | aust (GeneID 34244) | DRSC02558 |
| 1627 | 5581 | 647 | 1804 | inactive | CG8611 (GeneID 32725) | DRSC19340 |
| 11655 | – | 4022 | – | inactive | EndoG (GeneID 36309) | DRSC07292 |
| 8.02e5 | 6.78e5 | 3.22e5 | 14389 | inactive | EndoG (GeneID 36309) | DRSC22746 |

An excerpt from above, reduced to “Renilla control light, replicate 1”.
aust (GeneID 34244) [DRSC02558] = 917
CG8611 (GeneID 32725) [DRSC19340] = 647
EndoG (GeneID 36309) [DRSC07292] = 4022
